According to publication doi:10.1101/2020.08.04.235721:

Molecular target: T1, human Trx1C35S (human) (UniProt P10599)
T1 sequence: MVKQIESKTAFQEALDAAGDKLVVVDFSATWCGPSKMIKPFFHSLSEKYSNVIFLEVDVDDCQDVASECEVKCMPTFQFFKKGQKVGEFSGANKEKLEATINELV
Experiment: pull-down + affinity purification with mass spectrometry

B1: iron regulatory protein 1 (IRP1), endogenous in HeLa cells (protein, UniProt P21399 1-889)
chain: MSNPFAHLAEPLDPVQPGKKFFNLNKLEDSRYGRLPFSIRVLLEAAIRNCDEFLVKKQDIENILHWNVTQHKNIEVPFKPARVILQDFTGVPAVVDFAAMRDAVKKLGGDPEKINPVCPADLVIDHSIQVDFNRRADSLQKNQDLEFERNRERFEFLKWGSQAFHNMRIIPPGSGIIHQVNLEYLARVVFDQDGYYYPDSLVGTDSHTTMIDGLGILGWGVGGIEAEAVMLGQPISMVLPQVIGYRLMGKPHPLVTSTDIVLTITKHLRQVGVVGKFVEFFGPGVAQLSIADRATIANMCPEYGATAAFFPVDEVSITYLVQTGRDEEKLKYIKKYLQAVGMFRDFNDPSQDPDFTQVVELDLKTVVPCCSGPKRPQDKVAVSDMKKDFESCLGAKQGFKGFQVAPEHHNDHKTFIYDNTEFTLAHGSVVIAAITSCTNTSNPSVMLGAGLLAKKAVDAGLNVMPYIKTSLSPGSGVVTYYLQESGVMPYLSQLGFDVVGYGCMTCIGNSGPLPEPVVEAITQGDLVAVGVLSGNRNFEGRVHPNTRANYLASPPLVIAYAIAGTIRIDFEKEPLGVNAKGQQVFLKDIWPTRDEIQAVERQYVIPGMFKEVYQKIETVNESWNALATPSDKLFFWNSKSTYIKSPPFFENLTLDLQPPKSIVDAYVLLNLGDSVTTDHISPAGNIARNSPAARYLTNRGLTPREFNSYGSRRGNDAVMARGTFANIRLLNRFLNKQAPQTIHLPSGEILDVFDAAERYQQAGLPLIVLAGKEYGAGSSRDWAAKGPFLLGIKAVLAESYERIHRSNLVGMGVIPLEYLPGENADALGLTGQERYTIIIPENLKPQMKVQVKLDTGKTFQAVMRFDTDVELTYFLNGGILNYMIRKMAK
Q: B1 was tested. Which binding did it give?
A: Its binding is “binds”.

Results are given in words; binding and its absence hold for the method and conditions named. Binding seen in cells or lysates may run through a third protein. A yes stands for co-enrichment or nearness to the bait. Other partners may have been found.
